Measurements reported in PubChem BioAssay AID1224826 (NIAID, 2016).
Shown is one part, drawn at random, of about 17,000 reagents. Of all reagents, about 1,110 (6.6%) got an active call. 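Active means lowered or raised reporter signal; replicate intensities are raw and not normalised per plate.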 Entries without a mark were called inactive. No sequences are given here.

- Assay: 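Regulators of Tlr4 signalling leading to Tnf-alpha expression in macrophages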 (primary screen)
- System: RAW264.7 G9 macrophages from mouse bearing reporters for p65 (GFP) and the Tnf promoter (mCherry)
- Knock-down reagent: siRNA pool against mouse genes, 100 nM
- Time to read-out: 16 h of LPS stimulation, after 2 days of siRNA transfection
- Conditions: bacterial lipopolysaccharide (Salmonella minnesota R595), 10 ng/ml
- Measured: 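Imaged Tnf reporter mCherry in nuclei, minus background, normalised per plate to the median and expressed as robust z-scores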
- Reading the numbers: Tnf reporter robust z-score: higher = stronger Tnf promoter reporter signal after LPS; Tnf reporter intensity: higher = stronger Tnf promoter reporter signal
- Rule for the call: 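Called active when robust z-score is at most -1.3, matching the median of the Tlr4 knock-down control, or over 3; control wells and wells with under 50 cells never active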
- Calls: active = Tnf reporter clearly lowered or raised; inactive = no clear change in Tnf reporter

| gene knocked down | Tnf reporter robust z-score | fewer than 50 cells in well | Tnf reporter intensity, replicate 1 | Tnf reporter intensity, replicate 2 |
| --- | --- | --- | --- | --- |
| Rin3 | 0.94 | enough cells in well | 173 | 128 |
| Spata31d1d | – | fewer than 50 cells per well; well left out of calls | 74.8 | 65.4 |
| Clstn2 | 2.05 | enough cells in well | 337 | 429 |
| Slc25a46 | 0.39 | enough cells in well | 203 | 112 |
| Smo | 0.26 | enough cells in well | 282 | 99.7 |
| Crebrf | -0.97 | enough cells in well | 127 | 90.4 |
| Gla | -0.2 | enough cells in well | 269 | 193 |
| Mme | 0.53 | enough cells in well | 309 | 244 |
| Zfp955a | 1.69 | enough cells in well | 213 | 176 |
| Dmrt3 | -0.79 | enough cells in well | 178 | 143 |
| Fxyd4 | -1.12 | enough cells in well | 150 | 63.6 |
| Rigi | -0.11 | enough cells in well | 203 | 138 |
| Timm17a | 0.98 | enough cells in well | 128 | 148 |
| Defa-rs10 | 2.54 | enough cells in well | 378 | 276 |
| Klhl23 | -0.86 | enough cells in well | 74.3 | 114 |
| Psd4 | -0.23 | enough cells in well | 114 | 175 |
| Nkx2-4 | -1.29 | enough cells in well | 113 | 64.2 |
| Rad51c | 0.38 | enough cells in well | 368 | 218 |
| Or8b1 | 4.82 (active) | enough cells in well | 260 | 307 |
| Klc1 | 0.05 | enough cells in well | 222 | 168 |
| Or2c1 | 0.48 | enough cells in well | 351 | 80.5 |
| Mypn | -0.79 | enough cells in well | 170 | 62.7 |
| Gdap1 | 0.22 | enough cells in well | 309 | 222 |
| Ggt7 | -0.25 | enough cells in well | 258 | 104 |
| Atg4c | – | fewer than 50 cells per well; well left out of calls | 187 | 115 |
| Abca2 | -0.59 | enough cells in well | 204 | 112 |

Next part; the last 8 above are carried over.
| gene knocked down | Tnf reporter robust z-score | fewer than 50 cells in well | Tnf reporter intensity, replicate 1 | Tnf reporter intensity, replicate 2 |
| --- | --- | --- | --- | --- |
| Or8b1 | 4.82 (active) | enough cells in well | 260 | 307 |
| Klc1 | 0.05 | enough cells in well | 222 | 168 |
| Or2c1 | 0.48 | enough cells in well | 351 | 80.5 |
| Mypn | -0.79 | enough cells in well | 170 | 62.7 |
| Gdap1 | 0.22 | enough cells in well | 309 | 222 |
| Ggt7 | -0.25 | enough cells in well | 258 | 104 |
| Atg4c | – | fewer than 50 cells per well; well left out of calls | 187 | 115 |
| Abca2 | -0.59 | enough cells in well | 204 | 112 |
| Shroom2 | 1.81 | enough cells in well | 256 | 283 |
| Osmr | -0.23 | enough cells in well | 226 | 165 |
| Bnip5 | -0.01 | enough cells in well | 193 | 71.2 |
| Ftl1 | 1.97 | enough cells in well | 478 | 184 |
| Drp2 | 0.58 | enough cells in well | 282 | 242 |
| Nat2 | -1.14 | enough cells in well | 164 | 124 |
| BC023105 | 0.6 | enough cells in well | 195 | 310 |
| Pla2g12a | 0.15 | enough cells in well | 141 | 131 |
| Or5i1 | 0.51 | enough cells in well | 354 | 70.3 |
| 4930539J05Rik | 0.2 | enough cells in well | 201 | 193 |
| 8030498B09Rik | – | fewer than 50 cells per well; well left out of calls | 115 | 74.3 |
| Erc1 | 0 | enough cells in well | 122 | 138 |
| Wrap73 | -0.62 | enough cells in well | 222 | 168 |
| Or9q2 | 3.12 (active) | enough cells in well | 333 | 274 |
| Or4k52 | -0.78 | enough cells in well | 151 | 76.1 |
| Stfa1 | 0.66 | enough cells in well | 167 | 81 |
| Lrrc47 | – | fewer than 50 cells per well; well left out of calls | 177 | 50.9 |
| Or10a5 | -0.7 | enough cells in well | 235 | 79.6 |
| St7 | – | fewer than 50 cells per well; well left out of calls | 56.5 | 62.7 |
| Eppin | 0.8 | enough cells in well | 129 | 124 |
| Trappc4 | 2.72 | enough cells in well | 208 | 193 |
| St8sia3 | – | fewer than 50 cells per well; well left out of calls | 22.9 | 29.3 |
| Pcyt2 | – | fewer than 50 cells per well; well left out of calls | 225 | 137 |
| Vmn1r81 | 0.34 | enough cells in well | 132 | 88.4 |
| Ppih | -0.57 | enough cells in well | 105 | 104 |
| Cltrn | – | fewer than 50 cells per well; well left out of calls | 101 | 101 |
| Cyp2b10 | 0.4 | enough cells in well | 220 | 190 |
| 4921522P10Rik | – | fewer than 50 cells per well; well left out of calls | 186 | 31.8 |
| Wwtr1 | – | fewer than 50 cells per well; well left out of calls | 156 | 47.5 |
| Grin2c | 0.6 | enough cells in well | 311 | 280 |
| Rcc1 | -0.26 | enough cells in well | 226 | 189 |
| Pax7 | 1.32 | enough cells in well | 213 | 115 |
| Actn4 | – | fewer than 50 cells per well; well left out of calls | 112 | 109 |
| Prkar1b | -0.64 | enough cells in well | 218 | 128 |
| Rnf168 | – | fewer than 50 cells per well; well left out of calls | 192 | 59 |
| Pspc1 | -0.08 | enough cells in well | 153 | 98.9 |
| Zfp352 | 3.05 (active) | enough cells in well | 273 | 229 |
| Fzd10 | 0.4 | enough cells in well | 224 | 369 |
| Fam20b | -0.34 | enough cells in well | 59.6 | 143 |
| Gart | 0.39 | enough cells in well | 273 | 283 |
| Zc3h15 | 0.23 | enough cells in well | 269 | 75.5 |
| Cct3 | 0.16 | enough cells in well | 276 | 204 |
| Aoc1l3 | 3.7 (active) | enough cells in well | 251 | 200 |
| Kdm1a | 0.56 | enough cells in well | 270 | 277 |
| Celsr1 | 0.37 | enough cells in well | 203 | 399 |
| Scarb1 | 0.04 | enough cells in well | 366 | 172 |
| Hapln2 | 2.02 | enough cells in well | 469 | 238 |
| Cenph | 0 | enough cells in well | 270 | 185 |
| Ehmt2 | -0.42 | enough cells in well | 116 | 152 |
